Measurements from PubChem BioAssay (EPA / NIEHS).
Several values for one entry are separate records, joined by “and”; a condition that tells them apart may be missing. Equal values may be shown once. Inconclusive means that the source gave no clear call. Such entries were picked first, then a sample of the others. Potencies beside an inconclusive call are fits to weak or partial responses and may not hold up. Activity calls are given as the source filed them. How the source made its calls: active means hit-call score of the fitted dose curve at least 0.9, where 1 is the maximum; inconclusive means response in the unintended direction; inactive means score below 0.9.

Chains of the proteins cited; added tags and fusions are not shown. Lines headed by an entry give the natural chain unless they say otherwise; changes in a name come on top.
UniProt P19793: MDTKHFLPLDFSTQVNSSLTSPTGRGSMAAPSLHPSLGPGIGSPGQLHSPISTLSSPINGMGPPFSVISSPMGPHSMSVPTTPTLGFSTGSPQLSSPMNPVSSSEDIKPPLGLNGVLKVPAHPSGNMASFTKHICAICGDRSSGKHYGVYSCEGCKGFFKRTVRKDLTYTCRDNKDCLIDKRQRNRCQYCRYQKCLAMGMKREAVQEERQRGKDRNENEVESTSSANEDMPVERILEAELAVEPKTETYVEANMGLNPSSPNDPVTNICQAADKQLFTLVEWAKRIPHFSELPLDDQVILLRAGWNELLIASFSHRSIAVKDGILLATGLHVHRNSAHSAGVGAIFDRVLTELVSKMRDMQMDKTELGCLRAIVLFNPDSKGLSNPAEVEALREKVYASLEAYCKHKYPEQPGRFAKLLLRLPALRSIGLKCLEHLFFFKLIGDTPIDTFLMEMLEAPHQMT

Biological target: Retinoic acid receptor RXR-alpha (Homo sapiens) (UniProt P19793)
Test: ATG_RXRa_TRANS: Attagene TRANS-FACTORIAL HepG2 Assay for human Retinoid X Receptor alpha (RXRa) (AID 2283012)
Protocol: ATG_TRANS is a cell-based, multiplexed-readout assay that uses HepG2, a human liver cell line, with measurements taken at 24 hours after chemical dosing in a 24-well plate.ATG_RXRa_TRANS is one of 30 assay component(s) measured or calculated from the ATG_TRANS assay. It is designed to make measurements of mRNA induction, a form of inducible reporter, as detected with fluorescence intensity signals by Reverse transcription polymerase chain reaction (RT-PCR) and Capillary electrophoresis technology.Data from the assay component ATG_RXRa_TRANS was analyzed into 1 assay endpoint. This assay endpoint, ATG_RXRa_TRANS, was analyzed in the positive analysis fitting direction relative to DMSO as the negative control and baseline of activity. Using a type of inducible reporter, measures of mRNA for gain-of-signal activity can be used to understand the reporter gene at the transcription factor-level as they relate to the gene RXRA. Furthermore, this assay endpoint can be referred to as a primary readout, because this assay has produced multiple assay endpoints where this one serves a reporter gene function. To generalize the intended target to other relatable targets, this assay endpoint is annotated to the nuclear receptor intended target family, where the subfamily is non-steroidal.
Human liver HepG2 cells are transiently transfected with multiple reporter transcription units (MRTUs) in 6-well plates using FuGene 6 reagent (Roche; 3 ml FuGene/1 mg DNA). The MRTU constructs are regulated by a cis-regulating element (promoter). […] A major difference between the CIS and TRANS system is that in CIS activities of endogenous TFs are measured, whereas the TRANS assay evaluates changes in activities of exogenous, chimeric NR-Gal4 proteins. […] At the end of 24 hour incubation, total RNA was isolated using TriZol reagent (Invitrogen). The isolated RNA is then reverse-transcribed using oligo(dT) primer and Mo-MLV reverse transcriptase (Invitrogen) with DNAse I (Ambion) treatment for 30 min. The one-tenth of the produced cDNA was amplified by PCR using Taq DNA polymerase (Invitrogen) and two reporter sequence-specific primers. The PCR products were fluorescently labeled by primer extension with 6-arboxyfluorescein (6-FAM) 5'-labeled reporter sequence-specific primer (2 min at 95 C, 20 s at 68 C and 10 min at 72 C) and these products were digested with 5U of HpaI (New England Biolabs) for 2h at 37 C. The fragments were purified using Qiaquick PCR columns (Qiagen), analyzed on an ABI 3130xL genetic analyzer (Applied Biosystems) with peak positions identified by using a set of X-rhodamine (ROX)-labeled MapMarker1000 molecular weight standards (BioVentures). The raw capillary electrophoresis data was processed using Attagraph software (Attagene).

Structure (SMILES)	AC50	outcome
CSc1nc(N=[N+]=[N-])nc(NC(C)C)n1	inconclusive: 24.8 µM	–
O=C(NC(=O)c1c(F)cccc1F)Nc1ccc(Cl)cc1	inconclusive: 100 µM	–
CCCCCCCCCc1ccc(O)cc1	inconclusive: 60.8 µM	–
CC(C)CBr	inconclusive: 0.0859 µM	–
FC(F)OCC(F)(F)C(F)(F)F	–	inactive
CCC(C)(c1ccc(O)cc1)c1ccc(O)cc1	inconclusive: 60.4 µM	–
O=S(=O)(F)C(F)(F)C(F)(F)C(F)(F)C(F)(F)F	–	inactive
CC(C)c1ccc(CO)cc1	inconclusive: 100 µM	–
C=CCC1=C(C)C(OC(=O)C2C(C=C(C)C)C2(C)C)CC1=O (stereo not given)	inconclusive: 8.23 µM	–
O=[N+]([O-])/N=C1\NCCN1Cc1ccc(Cl)nc1	–	inactive
C[C@]12CCC(=O)C=C1CC[C@@H]1[C@@H]2CC[C@]2(C)C(=O)CC[C@@H]12	–	inactive
O=C(Nc1ccccc1-c1ccc(Cl)cc1)c1cccnc1Cl	–	inactive
CC1(C)CCC(=Cc2ccc(Cl)cc2)C1(O)Cn1cncn1 (stereo not given)	–	inactive
COP(=O)(OC)OC(Br)C(Cl)(Cl)Br (stereo not given)	inconclusive: 0.00861 µM	–
CCC(C)(C)C(=O)OC1=C(c2ccc(Cl)cc2Cl)C(=O)OC12CCCCC2	–	inactive
C1CC2OC2CC1C1CO1 (stereo not given)	inconclusive: 0.219 µM	–
CC(C)C(=O)OCC(C)(C)C(OC(=O)C(C)C)C(C)C (stereo not given)	inconclusive: 100 µM	–

Structure (SMILES)	AC50	outcome
C=COCCCl	–	inactive
CN=C=S	inconclusive: 12.1 µM	–
CCCCC(CC)C(=O)Cl (stereo not given)	inconclusive: 100 µM	–
COC(=O)c1c(C(F)F)nc(C(F)(F)F)c(C2=NCCS2)c1CC(C)C	–	inactive
CC(C)OC(=O)Nc1ccccc1	inconclusive: 100 µM	–
Cc1ccc(N)cc1	inconclusive: 100 µM	–
CCC(C)(C)c1ccc(O)c(C(C)(C)CC)c1	active: 33.4 µM	–
Cc1ccc(CCl)cc1	inconclusive: 100 µM	–
CN1C[C@H](C(=O)N[C@]2(C)O[C@@]3(O)[C@@H]4CCCN4C(=O)[C@H](Cc4ccccc4)N3C2=O)C=C2c3cccc4[nH]cc(c34)C[C@H]21	inconclusive: 0.0736 µM	–
Cc1ccc2ccccc2c1C	–	inactive
CCCN(CCOc1c(Cl)cc(Cl)cc1Cl)C(=O)n1ccnc1	–	inactive
Cc1ccc(N=C=O)cc1N=C=O	inconclusive: 100 µM	–

Sorted by SMILES length (descending): part of the list above.
Structure (SMILES)	AC50	outcome
CN1C[C@H](C(=O)N[C@]2(C)O[C@@]3(O)[C@@H]4CCCN4C(=O)[C@H](Cc4ccccc4)N3C2=O)C=C2c3cccc4[nH]cc(c34)C[C@H]21	inconclusive: 0.0736 µM	–
COC(=O)c1c(C(F)F)nc(C(F)(F)F)c(C2=NCCS2)c1CC(C)C	–	inactive
C=CCC1=C(C)C(OC(=O)C2C(C=C(C)C)C2(C)C)CC1=O (stereo not given)	inconclusive: 8.23 µM	–
COP(=O)(OC)OC(Br)C(Cl)(Cl)Br (stereo not given)	inconclusive: 0.00861 µM	–
CC(C)c1ccc(CO)cc1	inconclusive: 100 µM	–
C1CC2OC2CC1C1CO1 (stereo not given)	inconclusive: 0.219 µM	–
CN=C=S	inconclusive: 12.1 µM	–
